{"source": "PubChem BioAssay AID1259254 (NCATS, 2017)", "aim": "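Gene knock-downs that lead to re-replication, shown by excess G2 DNA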 (primary screen)", "system": "human HCT116 colorectal cancer cells", "knock-down reagent": "single siRNA against human genes", "timing": "3 days", "detection": "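Imaged Hoechst DNA stain sorts each cell into a cycle phase by DNA amount; per plate, G2 fraction set to 0% for non-targeting and 100% for GMNN siRNA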", "reading the numbers": "G2 robust z-score: higher = more G2 cells, more excess DNA replication", "hit rule": "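An siRNA counts as active if its G2 robust z-score lies at least 5 MADs above the screen median; here such calls match roughly 38% of GMNN control or more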", "note": "Here is an unselected part of about 59,000 reagents tested. Over the whole deposit, about 1,550 (2.6%) got an active call. 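G2 share is only a proxy for re-replication; each gene was hit by three separate siRNAs, and active genes were retested.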 Reagents against one gene are numbered here. Not all columns of the deposit are shown. The record does not give: the amount of reagent."}
{"gene":"SNRNP25 (small nuclear ribonucleoprotein U11/U12 subunit 25)","reagent":1,"G2 robust z-score":-0.249,"Outcome":"inactive"}
{"gene":"SNRNP25 (small nuclear ribonucleoprotein U11/U12 subunit 25)","reagent":2,"G2 robust z-score":-0.211,"Outcome":"inactive"}
{"gene":"SNRNP25 (small nuclear ribonucleoprotein U11/U12 subunit 25)","reagent":3,"G2 robust z-score":-0.52,"Outcome":"inactive"}
{"gene":"ICAM3 (intercellular adhesion molecule 3)","reagent":1,"G2 robust z-score":0.737,"Outcome":"inactive"}
{"gene":"ICAM3 (intercellular adhesion molecule 3)","reagent":2,"G2 robust z-score":1.52,"Outcome":"inactive"}
{"gene":"ICAM3 (intercellular adhesion molecule 3)","reagent":3,"G2 robust z-score":-0.526,"Outcome":"inactive"}
{"gene":"EEIG2 (EEIG family member 2)","reagent":1,"G2 robust z-score":1.9,"Outcome":"inactive"}
{"gene":"EEIG2 (EEIG family member 2)","reagent":2,"G2 robust z-score":0.965,"Outcome":"inactive"}
{"gene":"EEIG2 (EEIG family member 2)","reagent":3,"G2 robust z-score":-0.27,"Outcome":"inactive"}
{"gene":"KRTAP15-1 (keratin associated protein 15-1)","reagent":1,"G2 robust z-score":0.173,"Outcome":"inactive"}
{"gene":"KRTAP15-1 (keratin associated protein 15-1)","reagent":2,"G2 robust z-score":-0.487,"Outcome":"inactive"}
{"gene":"KRTAP15-1 (keratin associated protein 15-1)","reagent":3,"G2 robust z-score":-0.865,"Outcome":"inactive"}

In a second layout: results already given.
{"gene": "EEIG2 (EEIG family member 2)", "reagent": 3, "G2 robust z-score": -0.27, "Outcome": "inactive"}
{"gene": "KRTAP15-1 (keratin associated protein 15-1)", "reagent": 1, "G2 robust z-score": 0.173, "Outcome": "inactive"}
